PubChem BioAssay AID1259405, NCATS | 2018

- Screen: 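Mouse-designed siRNAs used to find CHO productivity engineering targets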 (primary screen)
- Cells: Chinese hamster CHO-K1 ovary cells with stable secreted eGFP expression
- Knock-down reagent: single siRNA against mouse genes, 0.8 pmol siRNA per well (2 µl of 400 nM stock)
- Timing: 3 days
- Measurement: 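Percent of the per-plate non-targeting control median for intracellular GFP per well by laser scanning cytometry and for cell viability by ATP luminescence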
- Direction: GFP, % of control: higher = more GFP per well, higher productivity
- Hit rule: 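Called active when intracellular GFP, relative to negative control, is at or above 120%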
This is one part, drawn at random, of about 50,000 reagents. About 4,000 of them (8%) were called active. 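Mouse siRNA library applied to hamster cells; one well for each siRNA.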 A number with no mark means an inactive call. The numbers tell different reagents against one gene apart. Not all columns of the deposit are shown.

GFP, % of control, by gene knocked down and reagent
Rusf1: #1 80.7; #2 43.7; #3 105
Nhp2: #1 73.7; #2 30.2; #3 121 (active)
Ipmk: #1 49.8
Amh: #1 94.1; #2 20; #3 59.7
Ebf3: #1 121 (active); #2 76.8; #3 104
Trub1: #1 86.8; #2 59.3; #3 111
Afmid: #1 69.1; #2 71.3; #3 55.9
Fggy: #1 110; #2 37.7; #3 67.1
Or2t6: #1 113; #2 62.3; #3 54.4
B4galt6: #1 71; #2 114; #3 80
Gask1b: #1 69.5; #2 47.5; #3 67.5
Or2at4: #1 78.1; #2 73.6; #3 64
Bub1: #1 74.1
Pdpk1: #1 63.2
Zbtb44: #1 46.9; #2 72.6; #3 61.6; #4 97.1; #5 103; #6 130 (active)
Il23a: #1 82.9; #2 40.4; #3 61.5
Fam24b: #1 82.8; #2 66.6; #3 66.7
Lgals9: #1 49.7; #2 59.1; #3 62.8
St6galnac2: #1 42.7; #2 124 (active); #3 83.9
Nhlrc2: #1 73.9; #2 66.9
Arl6ip4: #1 53.4; #2 54.9; #3 90.3
Stub1: #1 126 (active); #2 74.2
Ino80c: #1 68.2; #2 54.1; #3 85.8
Atoh1: #1 79.3; #2 239 (active); #3 82.1
Hs2st1: #1 76.1; #2 130 (active); #3 85.8
Fgf11: #1 52.7; #2 53.9; #3 75.7
Myo1d: #1 93.2; #2 63; #3 86.7
Rnpc3: #1 73.9; #2 88.9; #3 130 (active)
Ctnna2: #1 146 (active); #2 86.7
Lrpap1: #1 57.5; #2 84.3; #3 145 (active)

Targets listed so far whose target name starts with G or g (3):
GFP, % of control, by gene knocked down and reagent
Gask1b: #1 69.5; #2 47.5; #3 67.5
